Experiment [1] has as its target T1, NADE-lexA fusion protein (mouse) (UniProt Q9WTZ9).
T1 sequence: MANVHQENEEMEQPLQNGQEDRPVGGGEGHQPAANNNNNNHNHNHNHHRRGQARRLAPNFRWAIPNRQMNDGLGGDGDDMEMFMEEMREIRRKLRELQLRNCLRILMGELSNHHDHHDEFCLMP
The experiment in a line: yeast two-hybrid, lexA-NADE bait against VP16 mouse embryo cDNA library; His selection, beta-gal assay and mating test.

Sequences of proteins named here, by UniProt entry; tags and fusion partners are left off. Residues count along the entry.
UniProt P97820, residues 2-1233: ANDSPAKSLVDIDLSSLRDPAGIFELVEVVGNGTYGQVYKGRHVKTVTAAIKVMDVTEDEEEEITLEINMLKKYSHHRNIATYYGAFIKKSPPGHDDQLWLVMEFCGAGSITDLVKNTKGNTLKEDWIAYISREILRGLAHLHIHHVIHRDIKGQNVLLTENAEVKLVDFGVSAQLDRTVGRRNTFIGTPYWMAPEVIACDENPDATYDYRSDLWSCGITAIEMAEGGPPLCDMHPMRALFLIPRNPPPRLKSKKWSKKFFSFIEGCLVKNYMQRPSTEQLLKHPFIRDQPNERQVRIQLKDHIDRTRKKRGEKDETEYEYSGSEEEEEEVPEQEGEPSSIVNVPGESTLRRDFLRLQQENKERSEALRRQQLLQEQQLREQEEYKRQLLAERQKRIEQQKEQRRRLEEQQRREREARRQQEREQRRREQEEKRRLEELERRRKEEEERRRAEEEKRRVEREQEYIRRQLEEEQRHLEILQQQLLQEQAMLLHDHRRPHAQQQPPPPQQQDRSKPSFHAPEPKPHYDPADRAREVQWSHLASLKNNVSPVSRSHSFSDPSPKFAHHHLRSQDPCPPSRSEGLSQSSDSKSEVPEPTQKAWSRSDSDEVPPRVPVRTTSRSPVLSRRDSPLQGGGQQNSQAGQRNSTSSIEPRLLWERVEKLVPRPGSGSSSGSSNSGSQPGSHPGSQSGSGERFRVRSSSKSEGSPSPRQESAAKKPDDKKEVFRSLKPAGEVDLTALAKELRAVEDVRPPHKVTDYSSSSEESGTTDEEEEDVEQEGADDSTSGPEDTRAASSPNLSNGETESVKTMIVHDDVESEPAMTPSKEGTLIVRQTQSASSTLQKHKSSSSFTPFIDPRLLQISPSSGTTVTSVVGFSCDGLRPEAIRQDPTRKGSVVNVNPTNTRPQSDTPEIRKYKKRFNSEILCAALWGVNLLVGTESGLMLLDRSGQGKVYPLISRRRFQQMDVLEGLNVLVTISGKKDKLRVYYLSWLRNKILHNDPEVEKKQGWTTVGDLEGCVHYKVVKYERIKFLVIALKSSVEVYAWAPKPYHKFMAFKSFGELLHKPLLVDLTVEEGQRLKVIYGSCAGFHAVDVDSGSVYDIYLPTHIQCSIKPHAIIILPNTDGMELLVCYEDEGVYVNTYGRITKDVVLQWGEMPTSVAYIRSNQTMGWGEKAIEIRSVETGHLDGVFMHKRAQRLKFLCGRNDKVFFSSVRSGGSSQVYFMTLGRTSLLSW
UniProt O95819: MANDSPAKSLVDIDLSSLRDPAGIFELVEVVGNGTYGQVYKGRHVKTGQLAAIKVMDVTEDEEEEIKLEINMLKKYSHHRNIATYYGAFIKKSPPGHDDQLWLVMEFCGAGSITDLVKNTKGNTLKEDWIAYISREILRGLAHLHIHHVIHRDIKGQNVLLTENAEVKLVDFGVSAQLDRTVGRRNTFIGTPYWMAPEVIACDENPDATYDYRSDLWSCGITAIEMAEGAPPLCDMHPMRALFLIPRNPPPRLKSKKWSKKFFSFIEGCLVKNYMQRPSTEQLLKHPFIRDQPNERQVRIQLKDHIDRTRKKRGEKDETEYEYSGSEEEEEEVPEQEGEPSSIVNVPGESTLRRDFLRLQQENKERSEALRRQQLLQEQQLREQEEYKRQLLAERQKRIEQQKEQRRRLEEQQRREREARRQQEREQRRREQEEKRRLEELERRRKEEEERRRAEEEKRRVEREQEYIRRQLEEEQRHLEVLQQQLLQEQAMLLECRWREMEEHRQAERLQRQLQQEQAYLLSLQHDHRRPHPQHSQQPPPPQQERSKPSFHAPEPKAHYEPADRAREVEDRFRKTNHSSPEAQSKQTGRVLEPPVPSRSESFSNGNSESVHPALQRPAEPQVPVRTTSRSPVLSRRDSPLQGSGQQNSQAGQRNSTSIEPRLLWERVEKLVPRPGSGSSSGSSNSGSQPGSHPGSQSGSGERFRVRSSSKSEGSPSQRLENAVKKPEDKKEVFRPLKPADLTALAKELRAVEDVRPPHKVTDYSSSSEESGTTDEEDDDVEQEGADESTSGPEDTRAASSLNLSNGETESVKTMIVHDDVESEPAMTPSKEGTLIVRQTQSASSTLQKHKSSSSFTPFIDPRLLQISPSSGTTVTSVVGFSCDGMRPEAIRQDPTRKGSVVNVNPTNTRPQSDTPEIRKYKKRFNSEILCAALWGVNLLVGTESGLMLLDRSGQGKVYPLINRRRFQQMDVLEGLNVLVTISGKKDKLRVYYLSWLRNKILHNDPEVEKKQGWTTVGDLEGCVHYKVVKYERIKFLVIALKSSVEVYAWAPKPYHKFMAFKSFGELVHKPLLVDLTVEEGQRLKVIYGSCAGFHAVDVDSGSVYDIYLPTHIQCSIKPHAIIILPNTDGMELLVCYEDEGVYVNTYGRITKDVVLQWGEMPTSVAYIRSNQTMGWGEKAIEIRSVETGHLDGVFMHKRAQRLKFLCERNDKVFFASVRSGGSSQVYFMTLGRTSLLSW

Experiment [2] concerns the target T2, mNADE with Myc-His tag expressed in 293T cells (mouse) (UniProt Q9WTZ9).
T2 sequence (looked up): T1 sequence
The experiment in a line: co-immunoprecipitation from 293T cells co-transfected with NADE-MycHis and FLAG-human NIK (HGK); anti-FLAG precipitation, anti-NADE Western blot. (In general: A western blot detects proteins with antibodies after separation by electrophoresis.)

No constants are given. Whether binding was seen depends on the method and setting. For some of these results: In cells and extracts the contact can be indirect. Some binding calls cover weakened binding; strength is not graded here. Tags and fused reporters may be left off the sequences shown.

With “NIK (Nek interacting kinase) (from UniProt P97820 2-1233) (enzyme)”, the binding result in experiment [1] is on record as “binds”. With “full length human NIK (HGK) connected with FLAG (from UniProt O95819 1-1239) (enzyme)”, the binding result in experiment [2] was “binds”.

B1: mus 14-3-3 beta (protein)
chain: MTMDKSELVQKAKLAEQAERYDDMAAAMKAVTEQGHELSNEERNLLSVAYKNVVGARRSSWRVISSIEQKTERNEKKQQMGKEYREKIEAELQDICNDVLELLDKYLILNATQAESKVFYLKMKGDYFRYLSEVASGENKQTTVSNSQQAYQEAFEISKKEMQPTHPIRLGLALNFSVFYYEILNSPEKACSLAKTAFDEAIAELDTLNEESYKDSTLIMQLLRDNLTLWTSENQGDEGDAGEGEN
On to B1, for which, in experiment [1], the binding entry is recorded as “binds”.

B2: Mus 14-3-3 eta (protein)
chain: GDREQLLQRARLAEQAERYDDMASAMKAVTELNEPLSNEDRNLLSVAYKNVVGARRSSWRVISSIEQKTMADGNEKKLEKVKAYREKIEKELETVCNDVLALLDKFLIKNCNDFQYESKVFYLKMKGDYYRYLAEVASGEKKNSVVEASEAAYKEAFEISKEHMQPTHPIRLGLALNFSVFYYEIQNAPEQACLLAKQAFDDAIAELDTLNEDSYKDSTLIMQLLRDNLTLWTSDQQDEEAGEGN
For B2, in experiment [1], the binding entry is given as “binds”.
